PubChem BioAssay AID504744, Drosophila RNAi Screening Center – 2011

- Assay: 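Find genes whose loss alters insulin-driven dAkt phosphorylation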 (primary screen)
- System: Drosophila Kc167 cells
- Reagent: long dsRNA against Drosophila genes, 250 ng dsRNA per well of a 384-well plate
- Duration: 3 days of knock-down, then overnight serum-free starvation before stimulation
- Conditions: bovine insulin at 387 nM for 10 minutes after 12 h without serum
- Read-out: 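In-cell antibody fluorescence for phospho-dAkt in each well over DNA-dye signal, with log2 residuals expressed as z-scores adjusted for cell count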
- Rule for the call: 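Hit in the insulin screen when the two-replicate mean z-score is more extreme than plus or minus 2.5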
The deposit covers about 23,000 reagents; this is a random part of those with a known target gene and a result. In the full data, 98 (0.43%) were called active. 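Only hit calls are given; the phospho-dAkt signals, z-scores and hit direction were not deposited.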 The numbers tell different reagents against one gene apart. No sequences are given here.

{"target": "CG10764", "dsRNA no.": 1, "outcome": "inactive"}
{"target": "Ssrp", "dsRNA no.": 1, "outcome": "inactive"}
{"target": "CG14915", "dsRNA no.": 1, "outcome": "inactive"}
{"target": "CG31121", "dsRNA no.": 1, "outcome": "inactive"}
{"target": "CG31121", "dsRNA no.": 2, "outcome": "inactive"}
{"target": "sbm", "dsRNA no.": 1, "outcome": "inactive"}
{"target": "CG5096", "dsRNA no.": 1, "outcome": "inactive"}
{"target": "CG11586", "dsRNA no.": 1, "outcome": "inactive"}
{"target": "Rab3GAP1", "dsRNA no.": 1, "outcome": "inactive"}
{"target": "Rab3GAP1", "dsRNA no.": 2, "outcome": "inactive"}
{"target": "CG1275", "dsRNA no.": 1, "outcome": "inactive"}
{"target": "Lsp1gamma", "dsRNA no.": 1, "outcome": "inactive"}
{"target": "CG12835 (retired record)", "dsRNA no.": 1, "outcome": "inactive"}
{"target": "CG31347", "dsRNA no.": 1, "outcome": "inactive"}
{"target": "Rh7", "dsRNA no.": 1, "outcome": "inactive"}
{"target": "CG3419 (retired record)", "dsRNA no.": 1, "outcome": "inactive"}
{"target": "CG3419 (retired record)", "dsRNA no.": 2, "outcome": "inactive"}
{"target": "CG5334", "dsRNA no.": 1, "outcome": "inactive"}
{"target": "Ctps", "dsRNA no.": 1, "outcome": "inactive"}
{"target": "Ctps", "dsRNA no.": 2, "outcome": "inactive"}
{"target": "Ctps", "dsRNA no.": 3, "outcome": "inactive"}
{"target": "CG31659", "dsRNA no.": 1, "outcome": "inactive"}
{"target": "Est-6", "dsRNA no.": 1, "outcome": "inactive"}

3 entries from above, set out differently.
Ssrp → outcome: inactive
CG14915 → outcome: inactive
CG31121 #1 → outcome: inactive
